Test results: US11040052B2, “Methods and pharmaceutical compositions for modulating autophagy in a subject in need thereof” (INSERM (INSTITUT NATIONAL DE LA SANTE ET DE LA RECHERCHE …, priority 2013, dated 2021)
For at least one compound, name, drawing or mass did not settle the structure.

Assays:
[1] = system: U2OS cells stably expressing GFP-LC3; experiment: Autophagy in cultured cells: GFP-LC3 puncta formation and LC3 lipidation with or without bafilomycin A1; type: cell-based, human; conditions: cells kept in rich medium, presence and absence of BafA1
Method: U2OS, HeLa or H4 cells stably expressing GFP-LC3 were seeded in 96-well imaging plates (BD Falcon, Sparks, USA) 24 h before stimulation. Cells were treated with the indicated agents for 4 h. […] Images were analyzed for the presence of GFP-LC3 puncta in the cytoplasm by means of the BD Attovision software (BD Imaging Systems). Cell surfaces were segmented and divided into cytoplasmic and nuclear regions according to manufacturer standard proceedings. RB 2×2 and Marr-Hildreth algorithms were used to recognize cytoplasmic GFP-LC3 positive dots. Statistical analyses were implemented on the R software (http://www.r-project.org/). For quantitative analyses of protein acetylation, cell surfaces were segmented into cytoplasm and nuclei regions, and staining intensity of each individual cell was measured for statistical analysis.
Membranes were then sliced in different parts according to the molecular weight of the protein of interest to allow simultaneous detection of different antigens within the same experiment. […]
For immunoblotting, protein extracts obtained by cellular lysis via RIPA buffer were run on 4-12% Bis-Tris acrylamide (Invitrogen) and electrotransferred to […] PVDF membranes (Biorad, USA). […] Quantification was performed by densitometry by means of Image J software.
U2OS and H4 cells stably expressing GFP-LC3 were seeded in 96-well or 384-well imaging plates (BD Falcon, Sparks, USA). […] Images were analyzed for the detection of GFP-LC3 puncta in the cytoplasm by means of the BD Attovision software (BD Imaging Systems. Cellular regions of interest, cytoplasm and nucleus, were defined and segmented according to standard proceedings. RB 2×2 and Marr-Hildreth algorithms were employed to allow the detection of GFP LC3 puncta. Statistical analyses were conducted using the R and Prism softwares (http://www.r-project.org/). For quantitative analyses of protein acetylation, cell surfaces were segmented intocytoplasmic and nucleic regions, and staining intensity of each individual cell was measured for statistical analysis.

[2] = target: T1, Recombinant GST-EP300 fusion protein (Homo sapiens, UniProt Q09472); experiment: In vitro acetylation assay (cell-free); type: biochemical; conditions: for acetyltransferase activity of EP300 (acetylation of histone H3 on Lysine 56): cell-free, 1 mM
T1 construct: Recombinant GST-EP300 fusion protein, corresponding to the amino acids 1066-1707(14-418, Millipore); purchased Millipore 14-418
T1 sequence (Q09472 1066-1707): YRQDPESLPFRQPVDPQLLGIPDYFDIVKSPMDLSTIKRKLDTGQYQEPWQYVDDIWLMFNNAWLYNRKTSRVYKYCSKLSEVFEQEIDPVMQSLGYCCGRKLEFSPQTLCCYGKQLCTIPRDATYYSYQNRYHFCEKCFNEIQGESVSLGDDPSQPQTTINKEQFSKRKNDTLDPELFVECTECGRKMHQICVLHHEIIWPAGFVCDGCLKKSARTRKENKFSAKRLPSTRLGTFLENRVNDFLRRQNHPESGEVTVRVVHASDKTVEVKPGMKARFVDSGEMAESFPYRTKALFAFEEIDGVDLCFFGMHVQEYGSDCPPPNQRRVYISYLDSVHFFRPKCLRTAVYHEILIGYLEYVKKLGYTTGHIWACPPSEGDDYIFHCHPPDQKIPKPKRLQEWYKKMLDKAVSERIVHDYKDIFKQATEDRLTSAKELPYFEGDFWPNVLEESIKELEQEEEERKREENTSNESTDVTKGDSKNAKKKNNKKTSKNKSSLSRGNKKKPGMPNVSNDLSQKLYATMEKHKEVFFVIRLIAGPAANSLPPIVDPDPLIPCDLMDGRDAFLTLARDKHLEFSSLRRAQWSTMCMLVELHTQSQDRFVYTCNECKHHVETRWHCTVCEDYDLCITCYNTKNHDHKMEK

[3] = system: cytoplasmic protein acetylation; experiment: Immunofluorescence of cytoplasmic acetyl-lysine-containing proteins; type: cell-based, human; conditions: cells kept in rich medium
Method: Cells were fixed with 4% PFA for 15 min at room temperature, and permeabilized with 0.1% Triton X-100 for 10 min, except for staining of cytoplasmic acetyl-lysine-containing proteins, in which any permeabilization step further than PFA fixation was avoided. Non-specific binding sites were blocked with 5% bovine serum in PBS, followed by staining with primary antibodies overnight at 4° C. Development was carried out with appropriate AlexaFluor™ conjugates (Molecular Probes-Invitrogen). In the case of cytoplasmic acetyl-lysine staining, an additional step of blocking using anti-acetylated-tubulin antibody (1:200) was applied. Ten μM Hoechst 33342 (Molecular Probes-Invitrogen) was employed for nuclear counterstaining. Fluorescence and confocal fluorescence microscopy assessments were performed on an IRE2 microscope (Lcica Microsystems) equipped with a DC300F camera and with an LSM 510 microscope (Carl Zeiss, Jena, Germany), respectively.
U2OS, HeLa or H4 cells stably expressing GFP-LC3 were seeded in 96-well imaging plates (BD Falcon, Sparks, USA) 24 h before stimulation. Cells were treated with the indicated agents for 4 h. Subsequently, cells were fixed with 4% PFA and counterstained with 10 μM Hoechst 33342. […] Images were analyzed for the presence of GFP-LC3 puncta in the cytoplasm by means of the BD Attovision software (BD Imaging Systems). […] For quantitative analyses of protein acetylation, cell surfaces were segmented into cytoplasm and nuclei regions, and staining intensity of each individual cell was measured for statistical analysis.
Cells were fixed with 4% PFA for 15 min at room temperature, and permeabilized with 0.1% Triton X-100 for 10 min. […] Ten μM Hoechst 33342 (Molecular Probes-Invitrogen, Eugene, USA) was employed for nuclear counterstaining Fluorescence wide-field and confocal microscopyassessments were performed on an DM IRE2 microscope (Leica Microsystems, Wetzlar, Germany) equipped with a DC300F camera and with an LSM 510 microscope (Carl Zeiss, Jena, Germany), respectively. […]

Compound	autophagic flux (GFP-LC3 puncta formation, LC3 lipidation) [1]	EP300 inhibition in presence of high-dose AcCoA ([2]; 100 μM Acetyl CoA)	acetyltransferase activity of EP300 (acetylation of histone H3 on Lysine 56) [2]	acetyltransferase activity of EP300 (acetylation of histone H3 on Lysine 56) ([2]; listed as Salycilate)	cytoplasmic protein acetylation [3]	cytoplasmic protein acetylation ([3]; listed as Salycilate)
C=C(C)[C@@H](CC=C(C)C)C[C@@]12C[C@@H](CC=C(C)C)C(C)(C)[C@@](CC=C(C)C)(C(=O)C(C(=O)c3ccc(O)c(O)c3)=C1O)C2=O [garcinol]	marked increase in GFP-LC3 puncta					
O=C(O)c1ccccc1O [salicylate]		abolished by high-dose AcCoA	inhibited the acetyltransferase activity of recombinant EP300 protein	inhibits Acetyltransferase activity of EP300	reduced the acetylation of cytoplasmic proteins	reduces cytoplasmic protein acetylation
